Experimental findings from paper PMC6929137 are described below.

Sequences of proteins named here, by UniProt entry; tags and fusion partners are left off. Residues count along the entry.
UniProt P02769, 25-607: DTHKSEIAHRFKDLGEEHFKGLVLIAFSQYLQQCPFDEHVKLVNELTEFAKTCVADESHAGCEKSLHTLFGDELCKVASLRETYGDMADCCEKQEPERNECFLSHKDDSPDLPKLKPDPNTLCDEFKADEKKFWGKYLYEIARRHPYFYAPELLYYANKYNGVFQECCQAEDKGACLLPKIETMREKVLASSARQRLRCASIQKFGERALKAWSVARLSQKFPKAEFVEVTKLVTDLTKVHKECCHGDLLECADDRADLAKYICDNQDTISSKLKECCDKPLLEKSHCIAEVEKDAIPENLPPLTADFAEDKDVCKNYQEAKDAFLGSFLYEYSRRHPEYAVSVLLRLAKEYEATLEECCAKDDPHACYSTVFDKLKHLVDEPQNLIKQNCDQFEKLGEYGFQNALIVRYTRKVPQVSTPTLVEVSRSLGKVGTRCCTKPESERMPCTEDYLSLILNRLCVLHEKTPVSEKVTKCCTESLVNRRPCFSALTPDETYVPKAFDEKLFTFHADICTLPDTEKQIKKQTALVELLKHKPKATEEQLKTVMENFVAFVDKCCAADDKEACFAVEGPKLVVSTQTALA

No signal at the amounts used counts as a negative. For some assays here: For at least one entry, the source does not settle the construct or the ends of the probe.

For data set [1], the target named is bovine serum albumin (BSA) (bovine) (UniProt P02769). The data set is described as follows: strand-displacement release of rhodamine 6G and Apixaban from gated NMOFs (fluorescence). Conditions: 1 uM protein, background release only; strand 2 (anchor): 5'-NH2-(CH2)6, DBCO-modified, clicked to azide-functionalized UiO-68 NMOF; 10 mM HEPES pH 7.4, 20 mM NaCl, 10 mM KCl, 10 mM MgCl2; 30 min; temperature not stated; commercial protein.

In another data set the test system is hemoglobin. Described as above. To be noted: 1 uM protein, background release only; strand 2 (anchor): 5'-NH2-(CH2)6, DBCO-modified, clicked to azide-functionalized UiO-68 NMOF; 10 mM HEPES pH 7.4, 20 mM NaCl, 10 mM KCl, 10 mM MgCl2; 30 min; temperature not stated; commercial protein.

Turning to GGTTGGTGTGGTTGGTTTT / AAAACCAACCA, the binding result (in data set [1]; with hemoglobin) was “no binding” each time.
